Several values for one entry are separate records, joined by “and”; a condition that tells them apart may be missing. Equal entries are not always repeated. Inconclusive means that the source gave no clear call. Such entries were picked first, then a sample of the others. Where the call is inconclusive, the potency comes from a doubtful curve fit. Activity calls are given as the source filed them. Calls follow the shape of the dose curve; as a rule, active = well fitted activation curve with a large enough effect in the repeat runs; inconclusive = weak or mixed curves; inactive = no such curve, though single readings can be large or run the other way.
The compounds below were run against Nuclear receptor subfamily 1 group I member 2 (Homo sapiens) (UniProt O75469) (assay: Human pregnane X receptor (PXR) small molecule agonists, qHTS assay (AID 1346982; also: nearly all actives have a fitted effect of over 35% in size)). Details: PXR-Luc HepG2, CYP3A4 luciferase reporter, 24 h; series mostly up to 92.4 µM; activation: at the top concentration.
In short: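 After plating in 5% charcoal-stripped FBS and a 5 hr rest, PXR-Luc HepG2 cells received compounds in DMSO. Following 24 hr at 37 C, ONE-Glo was added and light output read.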
% is scaled to controls: 0 for no effect and ±100 for the full control effect; potency is read from the fitted curve at half-maximal effect.

Sequences of proteins named here, by UniProt entry; tags and fusion partners are left off. A change or cut given only in a name is not applied to a line headed by its entry.
UniProt O75469: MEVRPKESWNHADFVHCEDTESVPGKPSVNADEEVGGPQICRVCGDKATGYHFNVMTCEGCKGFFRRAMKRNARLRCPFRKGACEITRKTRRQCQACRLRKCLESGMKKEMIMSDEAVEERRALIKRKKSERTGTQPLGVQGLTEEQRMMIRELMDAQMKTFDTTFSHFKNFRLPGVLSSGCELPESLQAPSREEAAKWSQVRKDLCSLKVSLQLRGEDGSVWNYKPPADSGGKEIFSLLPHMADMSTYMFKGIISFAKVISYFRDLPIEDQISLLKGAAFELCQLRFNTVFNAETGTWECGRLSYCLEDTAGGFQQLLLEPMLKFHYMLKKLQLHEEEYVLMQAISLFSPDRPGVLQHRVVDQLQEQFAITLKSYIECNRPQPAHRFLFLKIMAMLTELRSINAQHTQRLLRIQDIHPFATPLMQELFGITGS

Compound	Potency	activation
CN(C)c1ccc(C(=C2C=CC(=[N+](C)C)C=C2)c2ccc(N(C)C)cc2)cc1	inconclusive: 1.93 µM [activator, single point] and inconclusive: 6.68 µM [activator, single point]	–
O=C(O)CCCCC1CCSS1 (stereo not drawn)	inconclusive: 19.3 µM [activator, partial curve, poor fit]	–
COC(=O)C1=C(C)NC(COC(N)=O)=C(C(=O)OC(C)C)C1c1cccc(Cl)c1Cl (stereo not drawn)	inconclusive: 33.5 µM [activator, single point]	–
Cc1oc(C)c(C(=O)Nc2ccccc2)c1C	inconclusive: 34.4 µM [activator, partial curve]	–
Clc1ccc2cc3ccccc3cc2c1	inconclusive: 48.5 µM [activator, partial curve]	–
C1CNCCN1	inconclusive: 56.1 µM [activator, partial curve, poor fit]	–
COCCCC/C(=N\OCCN)c1ccc(C(F)(F)F)cc1	inconclusive: 13.3 µM [activator, single point]	–
Cc1cccc(C)c1NC(=O)CN1CCN(CCCC(c2ccc(F)cc2)c2ccc(F)cc2)CC1	–	inactive: -31.2% [at 42.5 µM]

Some of the entries above in a different format:

| Compound | Potency | activation |
| --- | --- | --- |
| Cc1oc(C)c(C(=O)Nc2ccccc2)c1C | inconclusive: 34.4 µM [activator, partial curve] | – |
| Clc1ccc2cc3ccccc3cc2c1 | inconclusive: 48.5 µM [activator, partial curve] | – |

Reference: PubChem BioAssay (Tox21)
